This is one part of the list.
B1: il2ra_site2_3nfp_sap_15_mot_HHH_b2_06150_000000230_0001_39_53_H_._HHH_b2_00543_0001_0000100010_0000001_0_0001_af2pred_0001_af2pred_1 (protein)
chain: SSSSDEEEREELEELLEEAKKIEDEEEVREILSRASELARELNDPELAQLVAEVLAELADSSSSS
B2: il2ra_site2_3nfp_normal_mot_HHH_b1_00660_af2_000000090_0001_40_57_H_._HHH_b1_00954_0001_0000100002_0000001_0 (protein)
chain: SSSSDLEERLRELLEELEELVEEGDKERFREVAQEVIELVYENNDFEAFALLQELRALIASSSSS
B3: il2ra_site1_3nfp_normal_mot_HHH_b2_02053_000000240_0001_1_20_H_._8b3018496bece20695a4731cc719293d_0001_1_af2_0001_0000600031_0000001_0_af2pred_0001_af2pred_swap … (protein)
chain: GPRAAKILVRRALEENSPRALRRILEDLERNLGDPEKAERLLSELIAEVLKVPPEEAEKIVEEVK
B4: il2ra_site2_3nfp_sap_22_mot_HHH_b1_04312_000000268_0001_22_39_H_._HHH_b1_01863_af2_0001_0000200011_0000001_0_0001_af2pred_0001_1_af2pred_swapped (protein)
chain: SSSSSSEVEEEIEELIERAKRTPDPREAFLLLLLALRLAEELNDPELLREVRELLRELRSSSSSS
B5: il2ra_site1_1z92_sap_16_mot_HHH_b1_05516_af2_000000202_0001_21_38_H_._HHH_b2_03955_0001_0000100001_0000001_0_0001_af2pred_0001_af2pred_1 (protein)
chain: SSSSSRLEKSLRIAVKAMVESANLSEEQQEKLEEVVEELVEEGVDFHEALKILDEVALKLSSSSS
B6: il2ra_site1_2b5i_sap_10_mot_HHH_b1_04650_000000225_0001_43_56_H_._09ac4752b5ccafd30a612070d7dcd4c0_0001_af2_0001_0000600023_0000001_0_0001_af2pred_0001_af2pred (protein)
chain: SSSSDELYHEITELYRKASEAFRNGNPEEAEEILREALRLAEEAGDEVARRDLERLIEILSSSSS
B7: il2ra_site1_3nfp_sap_15_mot_HHH_b1_02721_af2_000000134_0001_39_56_H_._HHH_b2_07721_0001_0000100002_0000001_0_0001 (protein)
chain: SSSSSEAEELAREAREELEEERRRGDDEKFRELAHRLAEELDKLGDPHAVMLLMKKFARASSSSS
B8: il2ra_site1_3nfp_normal_mot_HHH_b2_02292_000000251_0001_1_21_H_._394de4c172568015e4b749d6fe9a249d_0001_0001_0000100003_0000001_0_af2pred_0001_af2pred_swapped (protein)
chain: SAERILEEALENRDPELLEHLLKALREVAKRDPLARELAEKMVRLLLEKDPDNELLEEVLEEVRK
B9: il2ra_site1_2b5i_normal_mot_ems_3hM_3687_af2_000000248_0001_45_64_H_._HHH_b2_03491_af2_0001_0000400021_0000001_0_af2pred_dldesign_0_af2pred (protein)
chain: SSSSSSEAEKIAEDAIAEARKLPDRRAALALLEAAHKEVSALGDEEAADKLERFARELLRSSSSS
B10: il2ra_site2_2erj_normal_mot_c2bf78bdce995293a161f7082e24b401_0001_af2_000000082_0001_17_32_H_._HHH_b1_02143_0001_0000300024_0000001_0 (protein)
chain: SSSSDEELERLYELANILLHLAARNDQEEFEKIYEEAERLAEETDNPNVREILEFLEKHINSSSS
B11: il2ra_site1_2b5i_normal_mot_HHH_b1_08033_000000124_0001_1_20_H_._HHH_b2_01600_0001_0000200009_0000001_0_af2pred_dldesign_0_af2pred (protein)
chain: SSSSSPLIEEAKRRAEEAIAYAKERNNKSTIKILEYGLERLEEDKDPKIAEELKKLADRILSSSS
B12: il2ra_site1_3nfp_sap_21_mot_3ff75f044bbd266f07abdfc5542de534_0001_000000014_0001_18_33_H_._509714e85d23fb3917fd9f3451be2a65_0001_0001_0000500015_0000001_0_0001 (protein)
chain: SSSSTEELQELFHEAFELAKEGDKEEAQEVLEELIELARELGTRNVLRSAERALEMLRRGSSSSS
B13: il2ra_site1_1z92_sap_20_mot_HHH_b2_05734_000000004_0001_1_18_H_._HHH_b1_01340_0001_0000200019_0000001_0_0001 (protein)
chain: DSKAIKWLLEAAKRFGSLETDLRILIRLLAQARRVPPEEAAEILLRILEELGDPEAEEIVREIVK
B14: il2ra_site2_2erj_normal_mot_HHH_b1_07584_000000201_0001_42_55_H_._HHH_b1_01248_0001_0000200004_0000001_0 (protein)
chain: SSSSDELEREVARLAVEAIELAHKGNPEEARKALEEALRLAEENNNETLARYLELALRHLGSSSS
B15: il2ra_site2_2erj_sap_20_mot_HHH_b1_07562_000000147_0001_41_55_H_._HHH_b1_08513_0001_0000200003_0000001_0_0001 (protein)
chain: SSSSDELRELYELLVALLHLVHNNDEEEFEKVVERAEKLAEKLNSESAKEAIEHLERLLGSSSSS
B16: il2ra_site1_3nfp_normal_mot_01923d483164837742cf829bee572cc5_0001_af2_000000153_0001_17_30_H_._HHH_b1_07621_af2_0001_0000700009_0000001_0_af2pred_0001_1_af2pred … (protein)
chain: SSSSEESLREAAKILVEALVKINGLSEEQKKKLEELAEELAERGLSAHEISEFLARLAARLSSSS
B17: il2ra_site2_2erj_sap_19_mot_35d2dc24e2c4431f89e6f806b163ecf8_0001_af2_000000142_0001_35_50_H_._HHH_b2_04240_af2_0001_0000200011_0000001_0_0001 (protein)
chain: SSSSDEKLHEIFRLASELLKAIAEGDEEKAKELFEEVRRVIEENNSENAEEILEWLERHLKSSSS
B18: il2ra_site1_3nfp_sap_11_mot_HHH_b1_01335_af2_000000258_0001_39_53_H_._99fa4ef3a3c7fd23d1d34353b8d2f85a_0001_0001_0000100004_0000001_0_0001 (protein)
chain: DELEEFSEAVKQLAKVAGVPHVEVSVSNGSVEVTFEGDNHDARIASKIVEFHAEKWGIKVEVEVE
B19: il2ra_site1_2b5i_normal_mot_HHH_b2_04910_000000118_0001_1_19_H_._HHH_b1_04606_0001_0000100006_0000001_0_af2pred_dldesign_0_af2pred (protein)
chain: SSSSSPEGERLRELIRKANELYQQGKYDEAKKLLEEALELAKKLGSTLLVKFLESCLKQISSSSS
B20: il2ra_site1_2b5i_normal_mot_2cbe48e66a1f39b3fed734b245ab0a04_0001_000000015_0001_17_31_H_._HHH_b2_00053_0001_0001100018_0000001_0_af2pred_dldesign_0_af2pred (protein)
chain: SSSSSSSAEEEVNKLLEEAAKAEDEIEQSKLLFEALKIARNAKDPELVAKVEARAAELLSSSSSS
B21: il2ra_site2_3nfp_normal_mot_HHH_b1_05627_af2_000000038_0001_43_56_H_._HHH_b1_00337_0001_0000500020_0000001_0 (protein)
chain: SSSSDKQEEYVRIALEIAKLAIEQGDPKAARESLEAALQLAEDIGNPELFQEIEELLEELRSSSS
B22: il2ra_site2_3nfp_normal_mot_HHH_b1_01086_af2_000000264_0001_39_53_H_._a6da1dbab15e72488587f943ddaf1f3f_0001_1_af2_0001_0000500054_0000001_0 (protein)
chain: DREELLERIVREKDPRVEELLEEIKEAKERNDEELLEKLAKRLALIAFELGDPEVFALAADLQSI
B23: il2ra_site1_1z92_sap_15_mot_ems_3hM_2197_000000181_0001_1_19_H_._HHH_b2_02502_af2_0001_0000200003_0000001_0_0001_af2pred_0001_af2pred (protein)
chain: KIEIHISNASPRVQEFIELAKQIPDVEVETENYNEYTVHVKDERLARLLERAAKLSGVEVEVHMS
B24: il2ra_site2_3nfp_sap_17_mot_968ffe68aa11d68c04d2634bf871f227_0001_1_af2_000000211_0001_1_14_H_._HHH_b1_06300_0001_0000300019_0000001_0_0001 (protein)
chain: SSSSSRQEEYIKAVIALIEEAIKAGDPESARSMLEVAKMLAEDARNPELLELLEELEEELNSSSS

These binders were tested against il2ra, P01589 (assay: yeast display titration).

Apparent Kd, inactive:
B1 no binding seen, B2 no binding seen, B3 no binding seen, B4 no binding seen, B5 no binding seen, B6 no binding seen, B7 no binding seen, B8 no binding seen, B9 no binding seen, B10 no binding seen, B11 no binding seen, B12 no binding seen, B13 no binding seen, B14 no binding seen, B15 no binding seen, B16 no binding seen, B17 no binding seen, B18 no binding seen, B19 no binding seen, B20 no binding seen, B21 no binding seen, B22 no binding seen, B23 no binding seen, B24 no binding seen
